Measured values from patent US20230024442A1, “BIFUNCTIONAL COMPOUNDS FOR GRADING BTK VIA UBIQUITIN PROTEOSOME PATHWAY” (NURIX THERAPEUTICS, INC., priority 2019, published 2023).

Sequences of proteins named here, by UniProt entry; tags and fusion partners are left off.
UniProt Q06187, whole entry: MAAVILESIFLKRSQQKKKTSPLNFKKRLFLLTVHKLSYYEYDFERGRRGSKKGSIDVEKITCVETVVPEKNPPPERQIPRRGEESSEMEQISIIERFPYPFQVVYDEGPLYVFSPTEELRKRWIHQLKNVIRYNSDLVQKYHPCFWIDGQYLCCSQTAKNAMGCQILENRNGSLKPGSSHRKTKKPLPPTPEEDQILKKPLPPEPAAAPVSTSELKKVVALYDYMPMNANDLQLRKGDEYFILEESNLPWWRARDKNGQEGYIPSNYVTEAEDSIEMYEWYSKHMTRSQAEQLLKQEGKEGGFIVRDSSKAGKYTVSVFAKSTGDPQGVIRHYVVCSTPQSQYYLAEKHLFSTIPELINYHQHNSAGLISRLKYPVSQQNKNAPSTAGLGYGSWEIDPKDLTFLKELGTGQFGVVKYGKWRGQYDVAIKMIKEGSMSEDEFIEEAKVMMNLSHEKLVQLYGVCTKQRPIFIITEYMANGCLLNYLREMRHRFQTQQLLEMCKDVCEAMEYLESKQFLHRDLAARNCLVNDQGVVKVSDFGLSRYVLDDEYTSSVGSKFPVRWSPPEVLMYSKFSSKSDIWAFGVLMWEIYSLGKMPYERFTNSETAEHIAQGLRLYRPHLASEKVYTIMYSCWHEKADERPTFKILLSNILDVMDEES

Biological target: BTK (Homo sapiens, UniProt Q06187)
Test: Cellular BTK HTRF Assay (BTK levels in Ramos cells)
Details: read-out: Cellular BTK HTRF Ramos: DC50; Ramos cells, 50,000 cells, incubated four hours at 37° C.; BTK levels by Cisbio Total-BTK HTRF relative to DMSO-treated cells
Protocol: Ramos (CRL-1596) cells were obtained from American Type Culture Collection and were grown in RPMI-1640 media (ATCC, 30-2001) supplemented with 10% heat-inactivated FBS (Corning Premium Fetal Bovine Serum from Fisher, MT35015CV).
Compounds of the present invention were added to 50,000 Ramos cells in round-bottom 96 well plates with a final DMSO concentration of […] and were incubated at 37° C. 5% CO2 for four hours. BTK levels were determined using Cisbio Total-BTK HTRF ([…] Time-Resolved Fluorescence) kit (63ADK064PEG) according to manufacturer's protocol. Briefly, cells were incubated in 1× supplied lysis buffer for 30 minutes. In an opaque white low volume 96 well plate (Cisbio, 66PL96005), cell lysate was combined with two different specific BTK antibodies, one conjugated with Eu^3+-Cryptate FRET donor and one conjugated with d2 FRET acceptor. Assay controls include wells containing cell lysate with only the Eu^3+-Cryptate FRET donor antibody and wells containing both HTRF antibodies and lysis buffer without cells or control lysate provided by Cisbio. HTRF ratio was calculated as (acceptor signal at 665 nm/donor signal at 620 nm)×10^4. Background HTRF levels were determined from the control well containing the donor, but no acceptor, antibody. […] Readouts were reported as HTRF levels relative to HTRF levels of DMSO-treated cells. […]

CN[C@@H](C)C(=O)N[C@H](C(=O)N1CCC[C@H]1c1nc(C(=O)c2cccc(OCCOCCOCCOCCOCCC(=O)N3CCn4nc(Nc5cc(-c6ccnc(-n7ncc8cc(C(C)(C)C)cc(F)c8c7=O)c6CO)cn(C)c5=O)cc4C3)c2)cs1)C1CCCCC1 was tested, and the DC50 was 10 to 1000 nM.

The structures given here were assigned with low confidence; some may be wrong.
